Results taken from publication doi:10.1101/2021.11.02.466889.
Like-named read-outs stand apart in the source and are kept apart here. These are yes or no findings as the source states them, for the method shown. Some binding calls cover weakened binding; strength is not graded here.

The chains behind the UniProt entries cited, without tags or fusion partners.
UniProt A0A0D1DWQ2: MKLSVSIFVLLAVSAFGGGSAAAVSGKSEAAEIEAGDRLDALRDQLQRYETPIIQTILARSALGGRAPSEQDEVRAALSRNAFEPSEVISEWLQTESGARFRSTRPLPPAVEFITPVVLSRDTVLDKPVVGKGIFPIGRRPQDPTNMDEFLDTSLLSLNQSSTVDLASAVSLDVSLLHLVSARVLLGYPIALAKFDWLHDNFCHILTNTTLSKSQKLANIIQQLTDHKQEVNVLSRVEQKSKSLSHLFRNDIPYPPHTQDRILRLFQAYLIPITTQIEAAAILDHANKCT

Assays:
Assay in all cases: two-hybrid
[1] = target: chorismate mutase (Cmu1), yeast two-hybrid fusions (Ustilago maydis)
[2] = target: chorismate mutase (Cmu1), yeast two-hybrid fusions (Ustilago maydis); remark: listed apart in the source
[3] = target: chorismate mutase (Cmu1), yeast two-hybrid fusions (Ustilago maydis); remark: listed apart in the source

Measured: binding

chorismate mutase (Cmu1), yeast two-hybrid fusions (from UniProt A0A0D1DWQ2 1-290) (enzyme)
binds: all assays above
